PubChem BioAssay AID1259331 – Drosophila RNAi Screening Center | 2017
This is a random part of about 3,100 deposited reagents. In the full data, 126 (4.1%) were called active. 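Calls are per reagent; zinc was so toxic that few knock-downs lowered ATP further, so most hits raise ATP.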 The raw values are shown without normalisation. Unmarked entries are inactive. A plus sign joins genes that one reagent is predicted to hit. Reagent sequences are not shown. Not stated in the record: the amount of reagent.

Screen: 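Genes whose knock-down changes cell survival under toxic zinc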 (primary screen)
Cells: Drosophila S2R+ cells
Reagents: long dsRNA against Drosophila genes
Time to read-out: 5 days (4 days knock-down, then 1 day zinc)
Challenge: zinc chloride at 15 mM final level for 1 day
Measured: 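Luminescent ATP assay standing in for viability; Z score is the mean over three replicate plates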
Direction: mean Z score: higher = more ATP than other wells, better survival under zinc; ATP luminescence: higher = more ATP, more viable cells
Call rule: 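Hit when the absolute Z score is greater than 1.5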
Calls: active = hit, ATP up or down; inactive = not a hit

gene | dsRNA | mean Z score | ATP luminescence, replicate 1 | ATP luminescence, replicate 2
MFS1 (Major Facilitator Superfamily Transporter 1) | DRSC04115 | 0.573 | 60272 | 46280
MFS1 (Major Facilitator Superfamily Transporter 1) | DRSC27926 | 0.439 | 65965 | 63016
Ekar (Eye-enriched kainate receptor) | DRSC17161 | -0.394 | 62330 | 56654
Ekar (Eye-enriched kainate receptor) | DRSC24931 | -0.632 | 48303 | 39113
Sema1b (Semaphorin 1b) | DRSC07550 | -0.477 | 25622 | 26650
Sema1b (Semaphorin 1b) | DRSC27552 | 0.231 | 62793 | 63256
mthl4 (methuselah-like 4) | DRSC06998 | -0.514 | 63289 | 64830
CG7384 | DRSC03053 | -0.218 | 52401 | 53944
CG14743 | DRSC06479 | -0.518 | 67149 | 61661
CG14743 | DRSC39688 | 0.659 | 72791 | 66394
CG1806 | DRSC19787 | -0.189 | 43297 | 44514
CG8237 | DRSC07119 | -0.446 | 26719 | 29976
CG8237 | DRSC26686 | 2.18 (active) | 90247 | 94285
Or47b (Odorant receptor 47b) | DRSC07492 | -0.121 | 79137 | 70201
Or47b (Odorant receptor 47b) | DRSC39664 | -0.312 | 55042 | 55213
Kap-alpha1 (karyopherin alpha1) | DRSC11356 | -0.796 | 55162 | 50618
fng (fringe) | DRSC11887 | 0.0112 | 30165 | 33284
fng (fringe) | DRSC21935 | 0.0885 | 49040 | 49259
Ddr (Discoidin domain receptor) | DRSC02150 | -0.279 | 78057 | 68278
Ddr (Discoidin domain receptor) | DRSC03229 | -0.362 | 42405 | 42439
Ddr (Discoidin domain receptor) | DRSC22818 | -0.0103 | 48509 | 46674
mthl9 (methuselah-like 9) | DRSC08506 | -0.0562 | 69498 | 69618
mthl9 (methuselah-like 9) | DRSC39784 | -0.425 | 48410 | 52144
CG10165 | DRSC02017 | -0.426 | 50069 | 50361
CG17752 | DRSC15262 | 0.155 | 38513 | 57614
CG17752 | DRSC26265 | 0.648 | 59775 | 68709
CngB (Cyclic nucleotide-gated ion channel subunit B) | DRSC04297 | -0.381 | 25399 | 33284
PIG-A (Phosphatidylinositol glycan anchor biosynthesis class A) | DRSC06982 | 0.0892 | 32907 | 30902
CG5888 | DRSC01929 | 0.172 | 57399 | 59963
CG5888 | DRSC28190 | -0.699 | 41651 | 51043
ppk22 (pickpocket 22) | DRSC22093 | -0.000175 | 48560 | 49572
Or42a (Odorant receptor 42a) | DRSC04912 | 0.0146 | 1.04e5 | 74428
vir (virilizer) | DRSC04377 | 0.107 | 52384 | 54099
vir (virilizer) | DRSC26525 | 0.127 | 61249 | 57974
Corin | DRSC28927 | -0.481 | 53464 | 54510
Corin | DRSC39613 | 0.243 | 63187 | 61215
PMP34 (Peroxisomal Membrane Protein 34) | DRSC21939 | -0.0916 | 46263 | 45988
PMP34 (Peroxisomal Membrane Protein 34) | DRSC39444 | -0.406 | 37005 | 51904
Gli (Gliotactin) | DRSC03332 | -0.13 | 51629 | 38153
Gli (Gliotactin) | DRSC39818 | -0.472 | 44981 | 54424

Called active, of those listed so far:
gene | dsRNA | mean Z score | ATP luminescence, replicate 1 | ATP luminescence, replicate 2
CG8237 | DRSC26686 | 2.18 (active) | 90247 | 94285

Continued.
gene | dsRNA | mean Z score | ATP luminescence, replicate 1 | ATP luminescence, replicate 2
Irk1 (Inwardly rectifying potassium channel 1) | DRSC16106 | -0.56 | 30456 | 50384
Gr36b (Gustatory receptor 36b) | DRSC21637 | 0.212 | 58043 | 44497
Gr36b (Gustatory receptor 36b) | DRSC29818 | 0.0987 | 50481 | 48526
Cad99C (Cadherin 99C) | DRSC15050 | 0.115 | 63753 | 72245
Cad99C (Cadherin 99C) | DRSC16317 | -0.357 | 41760 | 41685
5-HT2A (5-hydroxytryptamine (serotonin) receptor 2A) | DRSC11990 | -0.603 | 27850 | 27679
5-HT2A (5-hydroxytryptamine (serotonin) receptor 2A) | DRSC39711 | -0.454 | 57545 | 50395
Loxl1 (Lysyl oxidase-like 1) | DRSC14303 | 0.321 | 71059 | 71690
CG5906 | DRSC10557 | 0.247 | 82671 | 62467
CG31787 | DRSC01632 | -0.108 | 40965 | 40793
Tsp42En (Tetraspanin 42En) | DRSC06185 | -0.31 | 79120 | 67577
CG1090 | DRSC21604 | 0.143 | 52504 | 49103
CG42288 | DRSC06381 | -0.558 | 60632 | 62621
ZnT49B (Zinc transporter 49B) | DRSC07225 | -0.218 | 64713 | 58196
ZnT49B (Zinc transporter 49B) | DRSC38001 | 0.479 | 56825 | 52950
Mayo | DRSC14300 | 0.519 | 75724 | 73563
Syb (Synaptobrevin) | DRSC07559 | 1.24 | 36096 | 46811
Syb (Synaptobrevin) | DRSC25904 | -0.156 | 53121 | 54126
Myd88 | DRSC06815 | -0.685 | 25159 | 24491
Myd88 | DRSC39905 | -0.696 | 45320 | 55693
CG10345 | DRSC14138 | -0.0392 | 45241 | 45800
CG9304 | DRSC04538 | -0.417 | 43976 | 35033
CG9304 | DRSC26210 | 0.1 | 57785 | 56105
smo (smoothened) | DRSC00837 | -0.401 | 45785 | 55625
smo (smoothened) | DRSC28492 | 0.0539 | 67475 | 56876
CG15221 | DRSC19659 | 0.0719 | 59876 | 74764
Tyler + Shawn | DRSC19564 | 0.337 | 54219 | 45933
Tyler + Shawn | DRSC19565 | -0.000406 | 40108 | 38599
